PubChem BioAssay AID686937, Drosophila RNAi Screening Center | 2013

Aim: 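Knock-downs that reduce output of a secreted reporter enzyme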 (primary screen)
System: Drosophila S2 cells expressing secreted horseradish peroxidase
Knock-down reagent: long dsRNA against Drosophila genes
Duration: about 5.5 days (5 days dsRNA, then 12 h reporter induction)
Conditions: reporter expression induced after 5 days of dsRNA, read 12 h later; inducer not stated
Measurement: 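Chemiluminescent measurement of peroxidase in the medium 12 h after reporter induction, following 5 days of dsRNA, given as a z-score per plate; higher means more secretion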
Direction: z-score: higher = more reporter secreted into medium
The screen tested about 23,000 reagents; below is a random part of those with a known target gene and a result. 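Reduced-secretion tags in replicate 1 do not always agree with the z-scores; no criterion for assigning the tags was given.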 Not all columns of the deposit are shown. No sequences are given here. Not given: the amount of reagent.

Which result is listed for CG6280 [DRSC06972]?
z-score, replicate 1: 0.26

With CG13623 [DRSC14625], what was measured?
z-score, replicate 1: 0.32

For CG13810 [DRSC08344], how do the results read?
z-score, replicate 1: 0.38

What did the screen give for CG13810 [DRSC22838]?
z-score, replicate 1: -0.42

For Dgkepsilon [DRSC07399], how do the results read?
z-score, replicate 1: 0.13

With Acp53C14b [DRSC06569], what was measured?
z-score, replicate 1: 0.28

With Mybbp1A [DRSC18788], how do the results read?
z-score, replicate 1: 0.2

For CG7691 [DRSC16287], how do the results read?
z-score, replicate 1: 0.09

How did the screen score Cp16 [DRSC11119]?
z-score, replicate 1: 0.24

What did the screen give for CG16798 [DRSC02517]?
z-score, replicate 1: 0.36

How did the screen score CG31832 [DRSC22067]?
z-score, replicate 1: 0.01

How did the screen score Npc2e [DRSC15522]?
z-score, replicate 1: 0.6

Which result is listed for Npc2e [DRSC22338]?
z-score, replicate 1: -0.57

Which result is listed for CG6972 [DRSC16159]?
z-score, replicate 1: 0.38

For mfas [DRSC16997], what was measured?
z-score, replicate 1: 0.27

For CG9672 [DRSC20201], what does the deposit list?
z-score, replicate 1: 0.37

What did the screen give for Cyp4e2 [DRSC07371]?
z-score, replicate 1: 0.24

What is on record for CG5273 [DRSC18612]?
z-score, replicate 1: 0.21

How did the screen score sa [DRSC11649]?
z-score, replicate 1: 0.36

For SPARC [DRSC14123], what was measured?
z-score, replicate 1: 0.36

Which result is listed for CG34165 [DRSC01970]?
z-score, replicate 1: -2.87

What did the screen give for CG32053 [DRSC10683]?
z-score, replicate 1: 0.29

For CG33301 [DRSC02778], how do the results read?
z-score, replicate 1: -0.19

Taken from above.
CG13623 [DRSC14625], z-score, replicate 1: 0.32
For “z-score, replicate 1”, Npc2e [DRSC15522] is entered as 0.6
CG6280 [DRSC06972], z-score, replicate 1 → 0.26
CG5273 [DRSC18612], z-score, replicate 1 = 0.21

Continued.
What did the screen give for CG42500 [DRSC14822]?
z-score, replicate 1: 0.39

For nAChRalpha1 [DRSC13664], how do the results read?
z-score, replicate 1: -2.2

What did the screen give for nAChRalpha1 [DRSC13670]?
z-score, replicate 1: -2.1

How did the screen score nAChRalpha1 [DRSC13672]?
z-score, replicate 1: 0.68

Which result is listed for nAChRalpha1 [DRSC17008]?
z-score, replicate 1: 0.34

What did the screen give for CG5783 [DRSC02894]?
z-score, replicate 1: 0.37

For CG32642 [DRSC18959], what was measured?
z-score, replicate 1: 0.33

Which result is listed for ReepB [DRSC07150]?
z-score, replicate 1: 0.52

For CG15754 [DRSC19719], what was measured?
z-score, replicate 1: 0.3

With CG42703 [DRSC03973], what does the deposit list?
z-score, replicate 1: 0.4

With CG30103 [DRSC06894], what does the deposit list?
z-score, replicate 1: 0.31

With CG14949 [DRSC08408], how do the results read?
z-score, replicate 1: 0.16

Which result is listed for Hou [DRSC20001]?
z-score, replicate 1: 0.18

What did the screen give for Hou [DRSC22347]?
z-score, replicate 1: -0.44

What did the screen give for Psf2 [DRSC00516]?
z-score, replicate 1: 0.27

For CG33489 [DRSC10588], what was measured?
z-score, replicate 1: 0.33

For Ppt2 [DRSC02786], what was measured?
z-score, replicate 1: 0.54
